No constants are given. Whether binding was seen depends on the method and setting. Some results given as binding are weak or reduced against the parent protein; the word gives no strength.

The test deals with EGFR-Fc (R&D Systems) (UniProt P00533). Put plainly: flow cytometry of CAR on primary T cells with labeled probe.

B1: CT-482 EGFR scFv CAR activator (scFv, not shown: small tags and cut ends)
scFv: EMQLVESGGGFVKPGGSLKLSCAASGFAFSHYDMSWVRQTPKQRLEWVAYIASGGDITYYADTVKGRFTISRDNAQNTLYLQMSSLKSEDTAMFYCSRSSYGNNGDALDFWGQGTSVTVSSGGGGSGGGGSGGGGSGGDVVMTQTPLSLPVSLGDQASISCRSSQSLVHSNGNTYLHWYLQKPGQSPKLLIYKVSNRFSGVPDRFSGSGSGTDFTLKISRVEAEDLGVYFCSQSTHVLTFGSGTKLEIK
On to B1, for which the binding result is on record as “binds”.

(Values after patent publication US20230277593A1.)
